# Reference: the supplement of paper PMC8288183
# This is one part of the list. Repeats are few or missing, and single values can be far off.
# Target: T1, NSUN6 (UniProt Q8TEA1)
# T1 sequence: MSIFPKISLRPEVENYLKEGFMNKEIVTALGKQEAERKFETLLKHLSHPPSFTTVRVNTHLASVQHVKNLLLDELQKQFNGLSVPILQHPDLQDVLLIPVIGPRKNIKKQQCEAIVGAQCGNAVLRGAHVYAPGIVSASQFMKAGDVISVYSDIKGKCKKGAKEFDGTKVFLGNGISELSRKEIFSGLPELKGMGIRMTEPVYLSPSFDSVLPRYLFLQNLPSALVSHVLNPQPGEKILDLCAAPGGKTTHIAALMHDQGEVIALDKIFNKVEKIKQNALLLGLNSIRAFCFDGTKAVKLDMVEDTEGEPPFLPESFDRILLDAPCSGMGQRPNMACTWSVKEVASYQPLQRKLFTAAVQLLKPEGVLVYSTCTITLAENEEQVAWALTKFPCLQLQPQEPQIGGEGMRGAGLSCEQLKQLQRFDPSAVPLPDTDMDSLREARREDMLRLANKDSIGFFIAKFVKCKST
# Test: m5C methylation level at the target C (C/(C+U) bisulfite reads) (fraction); higher = more methylation by NSUN6; extreme values may be limits of the assay
# Conditions: HEK293T (wild-type)
# Method: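 High-throughput mutagenesis reporter. About 140 bp oligo-pool variants of four natural Type II m5C substrates (substrate #1 chr15:91425541; #2 RAB15 3'UTR chr14:65413377; #3 SULT2A1 5'UTR chr19:48389569; #4 NAAA CDS chr4:76857361) were cloned as 3'UTR elements of psiCHECK-2 luciferase and transfected into wild-type HEK293T cells. Total RNA was taken 48 h later and m5C level was measured by targeted bisulfite sequencing as C/(C+U) reads at the m5C site (one library).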
# [1] = parent substrate: substrate #1 (main figure)
Sequence,m5C methylation level at the target C [1],m5C methylation level at the target C (parent substrate: substrate #2),m5C methylation level at the target C (parent substrate: substrate #3),m5C methylation level at the target C (parent substrate: substrate #4)
CCUGAG,0,0.00298,0.000372,0
GCCUAC,0.00268,0,0,0
UCACGC,0,0,0.00122,0.00136
CCAGUA,0.00378,0,0.00303,0.000569
UCUAUC,0.000628,0,0.00219,0
CCCUAA,0.0172,0,0.00134,0.000805
UCGUGA,0.00124,0,0.00181,0.00058
ACGAAU,0.0014,0.00375,0.00149,0
UCUUAG,0,0,0,0.00128
CCCCAA,0,0.00143,0.000694,0
CCAAGC,0,0,0.00257,0
ACUCAA,0.0102,0,0.00672,0.00578
ACGGGC,0,0.00434,0.000772,0.00125
UCAUAC,0.000681,0,0.0016,0.00355
ACGCUC,0.00543,0.0033,0.00336,0
UCUCUC,0,0,0.000678,0.00133
ACCUUC,0.0024,0.00351,0.00198,0
GCAAGA,0.00223,0,0.00205,0.00839
UCAAGG,0.000578,0,0.000525,0.00136
CCGAGU,0,0.0115,0.00345,0.00325
ACUCUA,0.28,0.0152,0.154,0.0821
ACGUGU,0.00153,0.00669,0.00483,0.00729
ACCCGC,0.00253,0.00287,0.00134,0.00534
CCACAG,0,0,0.000956,0

# A few values from the results shown.
# For m5C methylation level at the target C (parent substrate: substrate #4), UCUUAG is listed with 0.00128
# For m5C methylation level at the target C [1], ACUCUA is listed with 0.28
# For m5C methylation level at the target C (parent substrate: substrate #4), CCUGAG is listed with 0
# For m5C methylation level at the target C [1], UCAAGG is listed with 0.000578

# Going on with the list.

Sequence,m5C methylation level at the target C [1],m5C methylation level at the target C (parent substrate: substrate #2),m5C methylation level at the target C (parent substrate: substrate #3),m5C methylation level at the target C (parent substrate: substrate #4)
GCGCCU,0.0015,0.00185,0.00197,0.00352
GCCCCU,0,0.0014,0.000395,0.00232
CCCCUC,0,0.00282,0,0.00121
UCGAAG,0.00178,0.00185,0.00816,0.0021
ACGAGG,0.0114,0.00494,0.00378,0.00247
CCCCUG,0.000652,0.00148,0.00789,0.000592
GCGGGG,0.00379,0.0043,0.00129,0.000418
ACCACA,0,0,0,0.00119
ACAUGC,0,0,0.00237,0.000638
ACGGUU,0,0,0.00468,0.00236
GCAUAC,0.000448,0,0.000996,0.00126
CCGGUU,0.000891,0.00131,0,0.00139
UCCAAC,0,0.00357,0.00238,0.000536
ACCGCA,0,0.00167,0.00105,0.00289
ACAUCA,0,0,0,0.00173
GCAACC,0,0,0,0
UCAAUA,0.00175,0,0,0.00474
ACAAGU,0.00214,0.00929,0.0021,0
CCCACC,0.000876,0,0.00297,0.00186
UCUGGG,0.00064,0.00423,0.00134,0
ACCCCA,0.0355,0.00154,0,0.00686
CCGCCC,0,0,0.00099,0
ACUCGU,0.00202,0.00187,0.000984,0.000717
